# Results: the supplement of paper PMC12819154, “High-throughput peptide-centric local stability assay extends protein–ligand identification to membrane proteins, tissues and bacteria” (Nature Structural & Molecular Biology, 2025)
# Protein sequences, listed by entry. Tags and fused reporters are not part of them. Lines headed by an entry give the natural chain unless they say otherwise; changes in a name come on top.
# UniProt Q9H967: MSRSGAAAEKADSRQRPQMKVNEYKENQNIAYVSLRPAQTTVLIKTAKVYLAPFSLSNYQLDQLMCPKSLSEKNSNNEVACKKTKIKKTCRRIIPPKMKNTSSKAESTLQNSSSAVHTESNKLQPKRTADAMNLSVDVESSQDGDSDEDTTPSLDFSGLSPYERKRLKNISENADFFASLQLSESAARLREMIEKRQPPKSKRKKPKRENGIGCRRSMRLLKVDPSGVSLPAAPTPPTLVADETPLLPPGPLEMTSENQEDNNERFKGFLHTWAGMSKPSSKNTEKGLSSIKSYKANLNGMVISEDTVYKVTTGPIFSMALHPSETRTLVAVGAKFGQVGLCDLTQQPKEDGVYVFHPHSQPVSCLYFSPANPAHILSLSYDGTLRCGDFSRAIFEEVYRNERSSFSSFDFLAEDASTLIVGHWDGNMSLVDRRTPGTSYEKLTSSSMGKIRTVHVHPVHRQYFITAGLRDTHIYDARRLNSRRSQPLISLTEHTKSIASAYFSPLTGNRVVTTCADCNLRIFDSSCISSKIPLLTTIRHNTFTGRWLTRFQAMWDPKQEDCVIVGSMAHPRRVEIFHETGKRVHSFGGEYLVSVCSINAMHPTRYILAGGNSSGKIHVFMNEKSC
# UniProt Q9H939: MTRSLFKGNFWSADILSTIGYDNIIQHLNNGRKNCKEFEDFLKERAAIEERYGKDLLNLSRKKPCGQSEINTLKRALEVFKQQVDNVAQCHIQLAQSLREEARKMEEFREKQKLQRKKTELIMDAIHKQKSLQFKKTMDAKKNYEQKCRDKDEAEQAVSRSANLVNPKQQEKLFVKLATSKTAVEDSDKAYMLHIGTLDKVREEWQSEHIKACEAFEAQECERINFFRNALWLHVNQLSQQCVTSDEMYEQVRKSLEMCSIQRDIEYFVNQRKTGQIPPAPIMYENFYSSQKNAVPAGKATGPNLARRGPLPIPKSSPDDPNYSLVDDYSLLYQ
# UniProt Q9H6P5: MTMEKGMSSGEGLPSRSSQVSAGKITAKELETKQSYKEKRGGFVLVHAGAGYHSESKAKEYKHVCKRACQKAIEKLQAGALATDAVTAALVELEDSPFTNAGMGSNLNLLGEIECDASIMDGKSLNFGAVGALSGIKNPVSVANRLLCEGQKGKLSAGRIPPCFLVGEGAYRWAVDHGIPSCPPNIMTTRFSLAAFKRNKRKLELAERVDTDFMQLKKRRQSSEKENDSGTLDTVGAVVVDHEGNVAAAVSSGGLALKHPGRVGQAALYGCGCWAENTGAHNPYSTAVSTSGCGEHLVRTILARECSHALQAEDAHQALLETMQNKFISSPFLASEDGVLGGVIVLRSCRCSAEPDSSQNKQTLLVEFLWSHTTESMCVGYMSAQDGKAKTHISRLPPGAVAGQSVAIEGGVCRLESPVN
# UniProt Q9H6V9: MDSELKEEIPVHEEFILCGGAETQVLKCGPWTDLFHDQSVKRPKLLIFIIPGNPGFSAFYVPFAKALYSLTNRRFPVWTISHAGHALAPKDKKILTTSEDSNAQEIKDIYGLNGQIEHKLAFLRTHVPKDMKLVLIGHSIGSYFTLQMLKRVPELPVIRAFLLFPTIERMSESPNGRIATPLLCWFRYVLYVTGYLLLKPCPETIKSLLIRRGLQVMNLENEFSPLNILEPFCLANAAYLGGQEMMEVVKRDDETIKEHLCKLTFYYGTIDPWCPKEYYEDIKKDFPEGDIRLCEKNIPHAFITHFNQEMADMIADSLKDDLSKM
# UniProt Q9H6W3: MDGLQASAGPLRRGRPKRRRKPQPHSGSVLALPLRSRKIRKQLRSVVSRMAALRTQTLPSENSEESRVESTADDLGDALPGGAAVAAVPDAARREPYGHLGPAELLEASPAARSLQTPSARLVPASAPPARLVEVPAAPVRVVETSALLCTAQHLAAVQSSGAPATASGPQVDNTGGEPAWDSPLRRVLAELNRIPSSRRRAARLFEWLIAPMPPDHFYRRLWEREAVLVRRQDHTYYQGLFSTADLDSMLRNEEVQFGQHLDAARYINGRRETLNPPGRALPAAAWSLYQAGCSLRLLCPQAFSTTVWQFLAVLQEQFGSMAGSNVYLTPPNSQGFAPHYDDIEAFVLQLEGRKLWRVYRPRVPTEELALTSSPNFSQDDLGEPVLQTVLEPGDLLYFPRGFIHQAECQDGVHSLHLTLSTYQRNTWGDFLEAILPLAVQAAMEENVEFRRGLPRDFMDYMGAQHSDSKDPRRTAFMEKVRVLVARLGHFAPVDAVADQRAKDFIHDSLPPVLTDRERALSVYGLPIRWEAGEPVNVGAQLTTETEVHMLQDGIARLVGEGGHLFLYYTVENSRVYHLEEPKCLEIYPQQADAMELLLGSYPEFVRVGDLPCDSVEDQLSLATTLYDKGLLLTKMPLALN
# UniProt Q9HAH7: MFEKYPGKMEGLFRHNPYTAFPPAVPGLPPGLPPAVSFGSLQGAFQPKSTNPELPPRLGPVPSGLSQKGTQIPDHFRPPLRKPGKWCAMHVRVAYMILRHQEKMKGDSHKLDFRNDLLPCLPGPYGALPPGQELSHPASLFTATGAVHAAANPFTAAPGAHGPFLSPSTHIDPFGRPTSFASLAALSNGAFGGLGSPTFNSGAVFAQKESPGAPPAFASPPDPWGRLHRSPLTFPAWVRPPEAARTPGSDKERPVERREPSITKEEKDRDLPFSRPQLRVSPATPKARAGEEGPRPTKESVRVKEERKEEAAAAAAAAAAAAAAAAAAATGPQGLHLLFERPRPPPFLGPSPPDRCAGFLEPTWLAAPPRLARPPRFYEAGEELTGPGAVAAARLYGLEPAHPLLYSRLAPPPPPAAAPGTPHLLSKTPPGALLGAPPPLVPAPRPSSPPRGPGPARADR
# UniProt Q9HAQ2: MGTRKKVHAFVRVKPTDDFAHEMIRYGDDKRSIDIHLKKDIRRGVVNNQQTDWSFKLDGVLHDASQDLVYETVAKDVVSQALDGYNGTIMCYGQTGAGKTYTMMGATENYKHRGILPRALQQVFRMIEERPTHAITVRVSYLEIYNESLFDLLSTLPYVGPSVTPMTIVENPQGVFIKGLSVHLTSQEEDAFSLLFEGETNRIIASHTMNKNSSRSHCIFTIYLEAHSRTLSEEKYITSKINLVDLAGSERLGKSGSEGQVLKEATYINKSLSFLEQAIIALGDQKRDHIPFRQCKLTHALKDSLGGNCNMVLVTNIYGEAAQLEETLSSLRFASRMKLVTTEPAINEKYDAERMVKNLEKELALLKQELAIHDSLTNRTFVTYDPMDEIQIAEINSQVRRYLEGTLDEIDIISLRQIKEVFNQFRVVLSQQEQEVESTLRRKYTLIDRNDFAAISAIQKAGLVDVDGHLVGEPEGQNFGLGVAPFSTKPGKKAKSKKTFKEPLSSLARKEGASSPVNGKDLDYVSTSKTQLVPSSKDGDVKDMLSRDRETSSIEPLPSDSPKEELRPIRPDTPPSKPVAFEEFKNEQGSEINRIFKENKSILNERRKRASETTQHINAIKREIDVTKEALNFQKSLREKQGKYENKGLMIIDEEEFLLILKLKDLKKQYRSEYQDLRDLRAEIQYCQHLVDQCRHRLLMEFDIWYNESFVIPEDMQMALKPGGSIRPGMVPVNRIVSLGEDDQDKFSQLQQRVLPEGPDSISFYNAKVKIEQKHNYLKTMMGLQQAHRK
# UniProt Q9H3S7: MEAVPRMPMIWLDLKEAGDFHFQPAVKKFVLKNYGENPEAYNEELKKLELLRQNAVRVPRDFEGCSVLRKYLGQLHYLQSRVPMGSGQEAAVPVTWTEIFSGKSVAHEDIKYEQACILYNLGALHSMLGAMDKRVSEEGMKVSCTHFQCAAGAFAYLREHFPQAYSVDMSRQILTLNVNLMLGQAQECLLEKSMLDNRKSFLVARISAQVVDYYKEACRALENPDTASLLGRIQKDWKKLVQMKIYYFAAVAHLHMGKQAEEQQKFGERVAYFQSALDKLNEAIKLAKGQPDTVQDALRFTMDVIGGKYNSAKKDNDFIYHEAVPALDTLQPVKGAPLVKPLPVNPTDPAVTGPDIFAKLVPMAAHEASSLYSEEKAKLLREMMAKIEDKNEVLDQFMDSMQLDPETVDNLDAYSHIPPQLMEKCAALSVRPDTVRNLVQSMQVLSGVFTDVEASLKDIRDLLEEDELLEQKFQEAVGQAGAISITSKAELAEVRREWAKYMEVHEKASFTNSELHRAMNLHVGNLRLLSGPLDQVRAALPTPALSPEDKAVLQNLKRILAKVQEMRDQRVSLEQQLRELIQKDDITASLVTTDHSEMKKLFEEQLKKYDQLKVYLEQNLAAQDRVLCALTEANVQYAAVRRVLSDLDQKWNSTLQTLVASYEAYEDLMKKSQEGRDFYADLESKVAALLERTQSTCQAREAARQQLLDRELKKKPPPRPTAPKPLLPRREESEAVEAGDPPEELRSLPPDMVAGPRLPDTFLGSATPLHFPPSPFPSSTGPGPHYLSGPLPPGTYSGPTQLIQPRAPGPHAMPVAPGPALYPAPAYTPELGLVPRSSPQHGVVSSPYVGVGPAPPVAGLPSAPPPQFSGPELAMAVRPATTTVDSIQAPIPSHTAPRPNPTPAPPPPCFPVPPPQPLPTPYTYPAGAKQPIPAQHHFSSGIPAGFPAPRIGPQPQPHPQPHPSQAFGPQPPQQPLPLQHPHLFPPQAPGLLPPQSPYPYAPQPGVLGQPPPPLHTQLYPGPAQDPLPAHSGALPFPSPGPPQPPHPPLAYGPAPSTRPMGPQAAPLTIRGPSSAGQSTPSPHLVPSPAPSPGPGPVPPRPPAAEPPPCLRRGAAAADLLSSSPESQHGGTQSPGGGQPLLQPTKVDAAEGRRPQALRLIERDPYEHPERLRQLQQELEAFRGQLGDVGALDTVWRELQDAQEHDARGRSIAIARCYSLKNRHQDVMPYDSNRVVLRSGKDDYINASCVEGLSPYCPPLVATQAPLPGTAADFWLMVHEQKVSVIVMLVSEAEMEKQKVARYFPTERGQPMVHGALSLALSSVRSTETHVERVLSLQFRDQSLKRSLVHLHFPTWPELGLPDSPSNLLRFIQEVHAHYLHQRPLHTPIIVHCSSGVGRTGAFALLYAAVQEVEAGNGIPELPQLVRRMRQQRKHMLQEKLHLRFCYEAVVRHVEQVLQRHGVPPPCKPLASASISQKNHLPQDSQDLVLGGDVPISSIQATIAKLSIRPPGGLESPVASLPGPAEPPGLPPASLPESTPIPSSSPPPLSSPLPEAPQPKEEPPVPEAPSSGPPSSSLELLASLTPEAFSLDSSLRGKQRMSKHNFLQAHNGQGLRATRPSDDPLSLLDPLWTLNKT
# UniProt Q9H2K2: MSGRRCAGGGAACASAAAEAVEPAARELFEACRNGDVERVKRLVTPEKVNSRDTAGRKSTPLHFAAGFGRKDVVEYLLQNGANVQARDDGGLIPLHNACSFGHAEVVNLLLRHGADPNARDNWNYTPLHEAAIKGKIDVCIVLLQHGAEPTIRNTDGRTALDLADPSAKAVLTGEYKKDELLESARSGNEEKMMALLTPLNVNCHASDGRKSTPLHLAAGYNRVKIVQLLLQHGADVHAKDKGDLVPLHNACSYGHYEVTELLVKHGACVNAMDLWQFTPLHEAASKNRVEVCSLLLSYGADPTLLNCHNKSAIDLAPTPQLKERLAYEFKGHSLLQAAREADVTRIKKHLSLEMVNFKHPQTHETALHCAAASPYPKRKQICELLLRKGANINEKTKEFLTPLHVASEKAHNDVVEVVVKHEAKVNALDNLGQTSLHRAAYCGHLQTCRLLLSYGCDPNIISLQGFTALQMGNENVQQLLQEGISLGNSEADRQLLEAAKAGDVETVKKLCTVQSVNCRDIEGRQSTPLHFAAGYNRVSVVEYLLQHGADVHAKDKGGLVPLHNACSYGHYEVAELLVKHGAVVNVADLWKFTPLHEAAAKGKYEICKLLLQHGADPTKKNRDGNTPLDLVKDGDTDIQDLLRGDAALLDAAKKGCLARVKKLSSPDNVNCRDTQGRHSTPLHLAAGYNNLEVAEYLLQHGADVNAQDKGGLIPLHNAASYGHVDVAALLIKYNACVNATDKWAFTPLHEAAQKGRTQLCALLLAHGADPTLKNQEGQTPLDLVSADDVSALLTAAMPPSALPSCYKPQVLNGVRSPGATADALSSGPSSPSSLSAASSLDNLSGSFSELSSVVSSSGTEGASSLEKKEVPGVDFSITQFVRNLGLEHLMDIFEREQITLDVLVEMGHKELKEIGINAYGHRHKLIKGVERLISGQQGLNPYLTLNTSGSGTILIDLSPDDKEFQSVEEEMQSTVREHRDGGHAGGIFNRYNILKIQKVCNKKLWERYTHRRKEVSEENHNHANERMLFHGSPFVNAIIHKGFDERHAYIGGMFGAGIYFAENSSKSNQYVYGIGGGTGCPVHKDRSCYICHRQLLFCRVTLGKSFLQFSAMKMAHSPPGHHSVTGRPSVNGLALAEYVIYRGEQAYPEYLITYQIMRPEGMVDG
# UniProt Q9H3J6: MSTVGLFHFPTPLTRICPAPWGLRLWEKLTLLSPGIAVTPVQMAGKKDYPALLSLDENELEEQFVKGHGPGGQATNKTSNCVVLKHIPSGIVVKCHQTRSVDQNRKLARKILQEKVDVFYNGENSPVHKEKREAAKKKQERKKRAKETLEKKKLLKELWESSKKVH
# The other results are listed elsewhere or left out. Most entries show no effect beyond the scatter of the controls.
# Compound: Cc1nc(Nc2ncc(C(=O)Nc3c(C)cccc3Cl)s2)cc(N2CCN(CCO)CC2)n1 [dasatinib]
# Assay: log2 fold change of tryptic peptide abundance, ligand vs vehicle (limited proteolysis) (log2 ratio); higher = more trypsin-susceptible (destabilized)
# Details: ligand concentration: 5 uM; sample: K562 cleared lysate
row,Target,log2 fold change
1,"WDR76 (peptide sequence: MSRSGAAAEK, peptide start residue: 1) (UniProt Q9H967)",0.407
2,"PSTPIP2 (peptide sequence: RGPLPIPK, peptide start residue: 308) (UniProt Q9H939)",-0.117
3,"UniProt Q9H8K7 (peptide sequence: SSSTPFPFR, peptide start residue: 252)",-0.148
4,"DEF6 (peptide sequence: QRQEWTAAIQMAIR, peptide start residue: 299) (UniProt Q9H4E7)",-0.201
5,"TASP1 (peptide sequence: VDTDFMQLK, peptide start residue: 209) (UniProt Q9H6P5)",-0.0555
6,"UniProt Q9H4Q3 (peptide sequence: SRHPGQSLLAK, peptide start residue: 651)",0.067
7,"UniProt Q9H7H0 (peptide sequence: FSMVILAR, peptide start residue: 369)",0.253
8,"AUNIP (peptide sequence: QAPVLLQTYR, peptide start residue: 242) (UniProt Q9H7T9)",-0.369
9,"UniProt Q9H6V9 (peptide sequence: DDETIKEHLCK, peptide start residue: 252)",-0.432
10,"UniProt Q9H668 (peptide sequence: GCHFLHILACAR, peptide start residue: 321)",-0.167
11,"UniProt Q9H6W3 (peptide sequence: LVEVPAAPVR, peptide start residue: 132)",0.169
12,"UniProt Q9HAH7 (peptide sequence: GTQIPDHFRPPLR, peptide start residue: 69)",-0.195
13,"IPPK (peptide sequence: AKDNAVMSTR, peptide start residue: 468) (UniProt Q9H8X2)",-0.529
14,"UniProt Q9HAQ2 (peptide sequence: INLVDLAGSER, peptide start residue: 249)",0.0104
15,"DDX31 (peptide sequence: CKFEEDQK, peptide start residue: 505) (UniProt Q9H8H2)",0.368
16,"SPC25 (peptide sequence: KTNNFSAFLANVRK, peptide start residue: 203) (UniProt Q9HBM1)",0.194
17,"UniProt Q9H8W3 (peptide sequence: ELTQYFGVNDRFDPPVKR, peptide start residue: 129)",-0.147
18,"PLEKHA3 (peptide sequence: SSHSIKEPVSTLHR, peptide start residue: 221) (UniProt Q9HB20)",-0.223
19,"YTHDC2 (peptide sequence: YQVFMLHSNMQTSDQKK, peptide start residue: 656) (UniProt Q9H6S0)",1.15
20,"RNF41 (peptide sequence: SVVQQQQTR, peptide start residue: 140) (UniProt Q9H4P4)",-0.192
21,"MED20 (peptide sequence: SVQQTVELLTR, peptide start residue: 16) (UniProt Q9H944)",-0.038
22,"PTPN23 (peptide sequence: DFYADLESK, peptide start residue: 677) (UniProt Q9H3S7)",0.126
23,"MARCHF7 (peptide sequence: DEAPIISNSER, peptide start residue: 249) (UniProt Q9H992)",0.3
24,"RPP21 (peptide sequence: FYCYTER, peptide start residue: 37) (UniProt Q9H633)",0.193
25,"UniProt Q9HCG1 (peptide sequence: YHELNHFSLLTQR, peptide start residue: 235)",-0.21
26,"HEATR1 (peptide sequence: LSPDGGKIPK, peptide start residue: 1266) (UniProt Q9H583)",-0.156
27,"UniProt Q9H2K2 (peptide sequence: DNWNYTPLHEAAIK, peptide start residue: 279)",0.605
28,"C12orf65 (peptide sequence: VDVFYNGENSPVHKEK, peptide start residue: 116) (UniProt Q9H3J6)",0.216
29,"ZHX3 (peptide sequence: SHEQLSALK, peptide start residue: 502) (UniProt Q9H4I2)",-0.123

# Quoted at random: 2 entries already listed, in no set order.
row,Target,log2 fold change
10,"UniProt Q9H668 (peptide sequence: GCHFLHILACAR, peptide start residue: 321)",-0.167
19,"YTHDC2 (peptide sequence: YQVFMLHSNMQTSDQKK, peptide start residue: 656) (UniProt Q9H6S0)",1.15
